{"source": "PubChem BioAssay AID1159584, Peter MacCallum Cancer Centre, 2016", "aim": "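Genes whose loss is lethal only together with E-cadherin loss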 (primary screen)", "cells": "human MCF10A breast epithelial cells, parental and CDH1-null", "reagent": "siRNA against human genes", "measured": "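ATP luminescence (CellTiter-Glo) viability per line relative to mean mock wells over all plates, and the ratio of CDH1-null to parental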", "direction": "CDH1-null / parental viability ratio: higher = CDH1-null cells survive relatively better than parental", "note": "Shown is an unselected part of about 18,000 reagents. Not all columns of the deposit are shown. Not given: the amount of reagent, the time to read-out."}
{"gene knocked down": "FAM162A", "CDH1-null / parental viability ratio": 0.93}
{"gene knocked down": "MOCOS", "CDH1-null / parental viability ratio": 1.04}
{"gene knocked down": "APOL2", "CDH1-null / parental viability ratio": 1.01}
{"gene knocked down": "ITPR1", "CDH1-null / parental viability ratio": 1.19}
{"gene knocked down": "SLC6A11", "CDH1-null / parental viability ratio": 1.39}
{"gene knocked down": "ZNF207", "CDH1-null / parental viability ratio": 1.4}
{"gene knocked down": "C12orf60", "CDH1-null / parental viability ratio": 1}
{"gene knocked down": "SMAD4", "CDH1-null / parental viability ratio": 1.1}
{"gene knocked down": "RTN3", "CDH1-null / parental viability ratio": 1.13}
{"gene knocked down": "STK11", "CDH1-null / parental viability ratio": 0.79}
{"gene knocked down": "ZNF662", "CDH1-null / parental viability ratio": 1.2}
{"gene knocked down": "TMEM176A", "CDH1-null / parental viability ratio": 1.32}
{"gene knocked down": "HYCC1", "CDH1-null / parental viability ratio": 1.04}
{"gene knocked down": "CYSLTR1", "CDH1-null / parental viability ratio": 1.48}

2 of these entries, set out differently:
| gene knocked down | CDH1-null / parental viability ratio |
| --- | --- |
| TMEM176A | 1.32 |
| HYCC1 | 1.04 |
